# PubChem BioAssay AID1347423 (Functional Genomics Laboratory (NCATS/FGL), 2020)
# Hit rate of the full screen: of about 52,000 sequences, about 210 (0.4%) were called active.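 The calls were made as follows: active = gene whose silencing raises cell survival under the drug, median off-target-corrected z-score across its silencing RNAs 2 or more; inactive = the rest.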 The list shows a part of the results.
# Test: Resistance to Poly (ADP-Ribose) Polymerase inhibitor: Gene Identification via Genome-wide siRNA Screen
# Details: mouse BRCA2 R2336H ES cells, olaparib, CellTiter-Glo viability; active compounds read high
# How it was run: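 Genome-wide siRNA screen (3 siRNAs/gene, 20 nM) in mouse ES cells carrying hypomorphic BRCA2 R2336H; olaparib 500 nM added 48 h post-transfection, CellTiter-Glo viability 72 h later. Normalized to plate-median negative control; MAD z-scores, gene median, seed-adjusted.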
row,Sequence,z-score
1,GCUGAUCCCUUGAGUGAAUTT against Rbm18,inactive: -1.03
2,GGCUACACUGGAUAUUUUUTT against F12,inactive: 0.194
3,GCAGAAGCGUGGCAUUGUATT against Ins2,inactive: -1.07
4,GGCUGUACCAAUCUGACACTT against Pvalb,inactive: 1.18
5,GGAGUUUGACAAGAAGUACTT against Dnclc1,inactive: 1.32
6,GCCAUAUAAGUGAAAAUCGTT against Gda,inactive: 0.821
7,GCUAACCUUGUUUUACAAGTT against D030056L22,inactive: 0.871
8,GCUUGGGUACUAUGUAACATT against Rbm8,inactive: -0.982
9,CCAUUAGCCUUAAUGAUGUTT against BC048403,inactive: -0.157
10,CGACCCUCUAAGGAUAUGCTT against Zfp456,inactive: -0.812
11,CCAGUGAUUACAGAAUUACTT against A4galt,inactive: 1.83
12,GGAGCAUCUUCUAAAGUAUTT against Wdr1,inactive: -1.14
13,GGUGGUGUUAAAAUAUACUTT against C77032,inactive: -0.598
14,GGACUUACGAGAAAGCGUATT against Tacr1,inactive: -2.16
15,GCUCACUUGAUUCUGGUAATT against Lmtn,inactive: -1.25
16,GCCCUGGUCUAUUCUGACUTT against Gpr152,inactive: -0.126
17,CGGAAUUGACCUAUUUGCATT against Mmp25,inactive: 0.35
18,GGCCAACAUCAUUGAGGCGTT against Eif2b2,inactive: -0.702
19,GGCCUUAACUACUCUGAAGTT against B230365F16Rik,inactive: 0.81
20,GGCAGCUUUUUACACUAGUTT against V1rc24,inactive: 1.5
21,CUACUCAGGACAUGUCUCATT against 2610109H07Rik,inactive: -0.802
22,CGUCAUUUCUCAUCCUGCUTT against Olfr76,inactive: -0.154
23,CCAGUUUACGUGGAAAAAATT against Cox4i1,inactive: -0.146
24,GGGUCUGGAAGAUUUCAAATT against 1700026P10Rik,inactive: 0.507
25,GCUGAUGAACGAAUACAACTT against Kcnk5,inactive: -0.89
26,CGUAGCUAAUCCGUAAAAGTT against 1700120K04Rik,inactive: -0.891

# A second format for some results above.
row	Sequence	z-score
12	GGAGCAUCUUCUAAAGUAUTT against Wdr1	inactive: -1.14
14	GGACUUACGAGAAAGCGUATT against Tacr1	inactive: -2.16
15	GCUCACUUGAUUCUGGUAATT against Lmtn	inactive: -1.25
17	CGGAAUUGACCUAUUUGCATT against Mmp25	inactive: 0.35
20	GGCAGCUUUUUACACUAGUTT against V1rc24	inactive: 1.5
21	CUACUCAGGACAUGUCUCATT against 2610109H07Rik	inactive: -0.802

# Continuation:

row,Sequence,z-score
1,GGGCUUCCAUCUUUCAUCCTT against Trex2,inactive: 2.04
2,GCGAACGAGCCUUUAAGCUTT against Fnta,inactive: -0.404
3,GGAAUAUUGAUGUUUCAACTT against Brrn1,inactive: -1.06
4,CUAGCAGGUUCAGAAUUUUTT against Olfr330,inactive: -0.366
5,CCUUUUUGUGGAAGUCGUUTT against Car1,inactive: -0.425
6,GGAGGUAAACAUAACUUAUTT against Ereg,inactive: -0.429
7,GGAAAUCAUCUUUUCAGAUTT against Slc7a12,inactive: -0.313
8,GGAGACCAUAAACAUAUUUTT against 4930449E07Rik,inactive: 0.359
9,GGAUUUAUGGCAAGUUUCUTT against Ppp2r5e,inactive: 0.323
10,GGAAAUCAAAGAACUGUAUTT against 5730596K20Rik,inactive: 0.926
11,GCCUUCUGUUAAGGUAAGATT against ORF34,inactive: -1.2
12,GGCCUUCAAGAACUCCUCCTT against Zec,inactive: 0.43
13,GCGACUCCUAGACAGAAAGTT against 2010204I15Rik,inactive: 0.445
14,GCUGAAGACACUCUGUGAATT against LOC114601,inactive: -0.507
15,GGCAAUGCACUGCUAUUAUTT against Olfr617,inactive: -2.85
16,GGUAGACCAGCUUAAGAAGTT against Gngt1,inactive: 1.01
17,GCUUAUGAGGUGUUGAGCGTT against Dnaja3,inactive: 0.532
18,GAGAAGUGUCUUGGGAAACTT against Gchfr,inactive: 0.621
19,GGAGCUAAACUCCUUGAAGTT against Slc22a4,inactive: 0.195
20,GGACAUCUCCUGUCUGAAUTT against Timm50,inactive: -1.54
21,GCUGGAUAGCACAUGUCUATT against Klk16,inactive: 0.836
22,GCAAGGAUGAAUCUAUAGATT against Pdgfrb,inactive: 0.277
23,GGCAUCACGUCAGAGUACATT against AY487415,inactive: 0.915
24,GGGACCAAAACCUGCAUUGTT against App,inactive: -2.85
25,GGAGAACGUGUUCUUUCCUTT against Procr,inactive: -0.625
26,GCGGGCCAUGACAAUUACUTT against Dnb5,inactive: -1.42

row,Sequence,z-score
1,GCUAUUGGAGAUAUAAUGGTT against Ace,inactive: 1.72
2,GGACCAGAUUGCUAAUGAGTT against D430015B01Rik,inactive: 0.733
3,GGCUAUGAGAUUUAGAGCATT against 1700060E18Rik,inactive: -0.384
4,GGAGAAGUACAAUAAUGACTT against Cacnb1,inactive: -0.0976
5,CCAAAGCACAGCAAUUAAUTT against Eif3s10,inactive: -2.67
6,GGUUGUACUCUACACCAAGTT against Crtac1,inactive: 0.578
7,GGACAGCACAAUUACCUUUTT against Nr3c1,inactive: -1.19
8,GGGACUUGUUGCUUAGCAATT against AW555814,inactive: -3.23
9,GCUCUGUCAGUGAAUGUGATT against Pkd1l2,inactive: -0.374
10,GGCACCCUUGAACUCUACUTT against 4930404N11Rik,inactive: -1.77
11,CCUCUGAGAAGGAGAUACATT against Hadh2,inactive: 0.935
12,GGAUCACCAUUGCUUGACUTT against Galt,inactive: 1.45
13,GCAGUCAAAACCUAAAAGUTT against B230315F11Rik,inactive: 1.66
14,CGAACUUCUUUAUCAGAACTT against Mrgpra4,inactive: -0.0736
15,GGCAGAAAACAAGAUAAAGTT against Wbscr1,inactive: -0.0664
16,GCCACUUGGAAGAUCUAUGTT against Kcnq1,inactive: -0.111
17,GCAUAUGUCUGUGGAAUGUTT against Olfr1505,inactive: 0.516
18,CCAGCAACCUGAAAUACCUTT against F830104D24Rik,inactive: -1.31
19,GGACUCAGCAAAGAAAGAGTT against Eea1,inactive: -1.52
20,CCGUGUUAGAGUUUUCGACTT against Top3b,inactive: -0.103
21,CGACUUUCUUGUGGAGUGGTT against Nanos1,inactive: 0.693
22,GCUGUACAAAACAUAAGAATT against Bcl6,inactive: 0.461
23,GGCUUUUAGAUUCAACGGCTT against B230369L08Rik,inactive: 0.722
24,GGUCCAGGUCUGAAUCUAGTT against Sfrs10,inactive: -2.42
25,GGUGUGGAUGAGCAAGUACTT against 1200009C21Rik,inactive: -2.68
26,CCUUAAUUGGGUUGAAUUCTT against Olfr878,inactive: 1.36

row,Sequence,z-score
1,GGAACAGGAAGAAAGAAAATT against Ube2e3,inactive: -0.0957
2,GGCUAGUCACCUUUGUAGCTT against Mmrn2,inactive: -0.147
3,GCUCUCACACAUGUUUGUUTT against LOC219026,inactive: 0.935
4,GGUUGUGUUUUCAAGAAUUTT against 4921507P07Rik,inactive: -0.00599
5,GGGUGGACUCAGUGCUUCUTT against Hoxd3,inactive: 2.02
6,GGUUCUAUACAAUCCUGAATT against 2610206B13Rik,inactive: 0.223
7,GGACUUAGUACCUGAUAACTT against 2700060E02Rik,inactive: -0.963
8,GGCAAAAGCAUUGUCUCUGTT against 4930438O05Rik,inactive: -0.7
9,CGAGCGGAUGCUGGUAUUUTT against 3000004C01Rik,inactive: -1.19
10,CGUGCUGUUGUGUAAUUUCTT against Wdr37,inactive: 0.16
11,GGAAUGUCGAAGAAAAUGCTT against Adam15,inactive: -0.742
12,CCGAAAGAGGUGAUUGUUATT against Crk7,inactive: -0.874
13,CGUGAUUCUAGUAAGAGAGTT against Mbd1,inactive: -1.37
14,GGAGCUGAUCCUUAACUUATT against Adam1b,inactive: -0.162
15,CCGAUGAUGAGAUUAAUAUTT against Ophn1,inactive: -0.413
16,GCGAUUGAGCAGUGAAUAATT against AU021034,inactive: -2.03
17,GGCAGCAAAAAGGUGACGCTT against Cdk5r2,inactive: -1.11
18,GGUGACAUUACAUUUCAUATT against 2610528A17Rik,inactive: -0.909
19,GCCGUUAAACAGUUCUCCCTT against BC065078,inactive: 0.803
20,GGUUGUCACCCUGACGGAATT against Cox4i2,inactive: 1.27
21,GCUUUAUCAUGAGCUCCACTT against 9330199A09Rik,inactive: -0.0905
22,ACAUGGGAGUAUUUGAUCCTT against D530030D03Rik,inactive: -0.172
23,GGCCAUUAACAUCACCAACTT against Csnk2a2,inactive: 0.567
24,GGGUCAUGUUAACUCUAAATT against Og2x,inactive: 0.17
25,CCAUAUAAGGCACAGUUUGTT against 1200007D18Rik,inactive: -0.0905
